# According to article PMC12148412:
# By UniProt entry, the sequences of proteins in these tests, tags left out.
# UniProt Q8R4B8: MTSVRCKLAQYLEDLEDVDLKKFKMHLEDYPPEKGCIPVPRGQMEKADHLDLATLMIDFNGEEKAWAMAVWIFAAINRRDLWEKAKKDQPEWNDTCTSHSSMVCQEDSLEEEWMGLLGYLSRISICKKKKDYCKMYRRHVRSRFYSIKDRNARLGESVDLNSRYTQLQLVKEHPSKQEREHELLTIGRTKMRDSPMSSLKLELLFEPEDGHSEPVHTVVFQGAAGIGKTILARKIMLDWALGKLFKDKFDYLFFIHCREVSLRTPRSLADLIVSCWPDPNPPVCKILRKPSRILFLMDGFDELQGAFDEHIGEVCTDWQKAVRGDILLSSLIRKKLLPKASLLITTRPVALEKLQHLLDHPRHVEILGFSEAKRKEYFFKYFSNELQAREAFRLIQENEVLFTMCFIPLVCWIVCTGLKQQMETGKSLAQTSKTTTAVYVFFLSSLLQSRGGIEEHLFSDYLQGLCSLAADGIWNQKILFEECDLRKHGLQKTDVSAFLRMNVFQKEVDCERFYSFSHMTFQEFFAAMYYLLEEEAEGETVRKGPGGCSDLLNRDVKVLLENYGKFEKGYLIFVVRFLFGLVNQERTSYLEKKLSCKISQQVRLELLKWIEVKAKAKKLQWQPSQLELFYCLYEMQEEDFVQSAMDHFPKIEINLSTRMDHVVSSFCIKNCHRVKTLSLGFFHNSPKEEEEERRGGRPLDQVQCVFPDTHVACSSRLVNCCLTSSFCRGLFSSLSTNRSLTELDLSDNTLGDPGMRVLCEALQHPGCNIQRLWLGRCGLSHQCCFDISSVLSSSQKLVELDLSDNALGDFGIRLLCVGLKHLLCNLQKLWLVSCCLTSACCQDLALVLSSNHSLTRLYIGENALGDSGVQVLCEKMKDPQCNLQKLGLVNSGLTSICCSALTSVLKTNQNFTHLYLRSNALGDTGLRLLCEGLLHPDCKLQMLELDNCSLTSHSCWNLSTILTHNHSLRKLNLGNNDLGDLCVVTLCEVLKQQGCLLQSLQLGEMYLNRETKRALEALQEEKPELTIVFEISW
# Target: NLR family pyrin domain containing 3 (NLRP3), endogenous in mouse BMDMs (mouse (endogenous in BMDM)) (UniProt Q8R4B8)
# Experiment: affinity purification with mass spectrometry; endogenous NLRP3 immunoprecipitated with NLRP3 antibody on protein A/G magnetic beads from lysates of BMDMs (LPS-primed, or LPS-primed and nigericin-stimulated); IgG control; washes with 100 and 500 mM NaCl IP buffer; SAINTexpress cutoff >= 0.9
row,Binder,binding
1,"RAB32, endogenous in mouse BMDMs (protein, UniProt Q9CZE3 1-223) MAGEGLGQQGASATAAPETREHLFKVLVIGELGVGKTSIIKRYVHQLFSQHYRATIGVDFALKVLNWDSRTLVRLQLWDIAGQERFGNMTRVYYKEALGAFVVFDISRSSTFDAVLKWKNDLDSKVHLPNGSPIPAVLLANKCDQKKDNSQSPSQMDQFCKDHGFTGWFETSAKDNINIDEATRFLVENMLANQQSFPSEEIDLDRIKLVEEPPTTKPRSQCC",binds
2,"ABHD12, endogenous in mouse BMDMs (protein, UniProt Q99LR1 1-398) MRKRTEPVTLEHERCAASGSSSSGSAAAALDADCSLKQNLRLAGKGTAEPHSASDAGMKRALGRRKSLWFRLRKILLCVLGFYIAIPFLVKLCPGIQAKLIFLNFVRVPYFIDLKKPQDQGLNHTCNYYLQPEDDVTIGVWHTIPSVWWKNAQGKDQMWYEDALASNHAIILYLHGNAGTRGGDHRVELYKVLSSLGYHVVTFDYRGWGDSVGTPSERGMTYDALHVFDWIKARSGDNPVYIWGHSLGTGVATNLVRRLCERETPPDALILESPFTNIREEAKSHPFSVIYRYFPGFDWFFLDPITSSGIKFANDENMKHISCPLLILHAEDDPVVPFHLGRKLYNIAAPSRSFRDFKVQFIPFHSDLGYRHKYIYKSPELPRILREFLGKSEPERQH",binds
3,"OAS1A, endogenous in mouse BMDMs (protein, UniProt P11928 1-367) MEHGLRSIPAWTLDKFIEDYLLPDTTFGADVKSAVNVVCDFLKERCFQGAAHPVRVSKVVKGGSSGKGTTLKGKSDADLVVFLNNLTSFEDQLNRRGEFIKEIKKQLYEVQHERRFRVKFEVQSSWWPNARSLSFKLSAPHLHQEVEFDVLPAFDVLGHVNTSSKPDPRIYAILIEECTSLGKDGEFSTCFTELQRNFLKQRPTKLKSLIRLVKHWYQLCKEKLGKPLPPQYALELLTVFAWEQGNGCYEFNTAQGFRTVLELVINYQHLRIYWTKYYDFQHQEVSKYLHRQLRKARPVILDPADPTGNVAGGNPEGWRRLAEEADVWLWYPCFIKKDGSRVSSWDVPTVVPVPFEQVEENWTCILL",binds
4,"FAM120A, endogenous in mouse BMDMs (protein, UniProt Q6A0A9 1-1112) MGVQGFQDYIEKHCPSAVVPVELQKLARGSLVGGGRQRPPQTPLRLLVDADNCLHRLYGGFYTDWVSGGQWNHMLGYLAALAKACFGGNIELFVFFNGALEKARLHEWVKRQGNERQTAQQIVSHVQNKGTPPPKVWFLPPVCMAHCIRLALIRFHVKVAQSIEDHHQEVIGFCRENGFHGLVAYDSDYALCNIPYYFSAHALKLSRNGKSLTTSQYLMHEVAKQLDLNPNRFPIFAALLGNHILPDEDLASFHWSLLGPEHPLASLKVRAHQLVLPPCDVVIKAVADYVRNIHDTSDLDAIAKDVFQHSQSRTDDKVIRFKRAVGYYSATSKPMPFHPPHYLARPNPFGMPGMVPPYVPPQMLNIPQTSLQAKPAVPQVPSPGGTPGQAPYPYSLSEPALTLDTSGKNLTEQNSYSNIPHEGKHTPLYERSSPINLAQSGSPNHVDSAYFPGSSTSSSSDNDEGGGGATNHISGNKIGWEKTGSHAEPLARGDPGDQVKVEGSSTASSGSQLAEGKGSHMGTVQPIPCLLSMPTRNHMDITTPPLPPVAPEVLRVAEHRHKKGLMYPYIFHILTKGEIKIAVSIEDEANKDLPPAALLYRPVRQYVYGVLFSLAESRKKTERLAFRKNRLPPEFSPLIIKEWAAYKGKSPQTPELVEALAFREWTCPNLKRLWLGKAVEDKNRRMRAFLACMRSDTPAMLNPANVPTHLMVLCCVLRYMVQWPGARILRRQELDAFLAQALSPKLYEPDQLQELKIDNLDPRGIQLSALFMSGVDMALFANDACGQPIPWEHCCPWMYFDGKLFQSKLLKASREKTPLIDLCDGQAEQAAKVEKMRQSILEGLSFSRQNHPLPFPPPPALPFYPASVYPRHFGPVPPSQGRGRGFAGVCGFGGHYGETVATGPYRAFRVTAASGHCGAFSGSDSSRTSKSQGGVQPIPSQGGKLEIAGTVVGHWAGSRRGRGGRGPFPLQVVSVGGPARGRPRGVISTPVIRTFGRGGRYYGRGYKSQGAIQGRPPYAASAEEVAKELKSKSGESKSSAVSLAENGVMAEEKPVPQLNGSTGDPRVPSHSESALNNDSKPCNTNPHLNALSTDSACRREAALEAAVLNKEE",binds

# These are yes or no findings as the source states them, for the method shown. Binding seen in cells or lysates may run through a third protein. These calls come from enrichment with a bait or labelling near it, and not all partners need be listed.
